# Experimental data reported in PubChem BioAssay AID493014 (National Center for Advancing Translational Sciences (NCATS), 2011).
# Out of some 340,000 compounds screened, about 170 (0.05%) were called active. This list was built around the results that the source calls inconclusive (neither active nor inactive); the mix of calls is not that of the screen. Calls come from the whole dose curve; as a rule, active = well fitted inhibition curve with a large enough effect in the signal ratio, with a control signal flat (not every such curve was filed as active); inconclusive = small, poorly fitted or top-dose-only effect, or effect the other way, or a change in a side signal; inactive = flat fitted curve, though single readings scatter; the % refers to the signal ratio. A potency beside an inconclusive call is a rough fit, not a confirmed value.
# Assay: qHTS Assay to Find Inhibitors of Chronic Active B-Cell Receptor Signaling;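 for activity change, negative = inhibition: plate controls were basal doxycycline-induced cells for no effect and cells given 10 µM MG132 for full effect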
# Details: ABC-DLBCL IkBa-CBG/CBR reporter, luminescence ratio (green luciferase fused to IkBa over red control in TMD8 lymphoma cells), 4 h; activity change, negative = inhibition: at 46.1 µM (top of the series)
# Summary of the method: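 Compounds up to 46 uM were incubated four hours with TMD8 cells whose green CBG68 luciferase is fused to IkappaBalpha; red CBR luminescence normalised the signal, and concentration-effect curves were fitted to fusion, red and ratio data.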
# Potency is the fitted concentration of half-maximal effect.
Structure (SMILES),Potency,"activity change, negative = inhibition"
CCc1ccc(-n2c(SCC(=O)N3Cc4ccccc4CC3C(=O)O)nnc2-c2ccncc2)cc1 (configuration not stated),"inconclusive: 22.4 µM [falling, single point]",
O=C1CSC(=S)N1/N=C/c1ccc(O)c(O)c1O,,inactive: 20.2%
COc1cccc2c1OCC(CN1CCN(Cc3ccccc3)C(CCO)C1)=C2 (configuration not stated),,inconclusive: -8.63%
C=CCNC(=S)Nc1ccc2cn[nH]c2c1,,inconclusive: -0.604%
Cc1ccc(C(=O)NCc2ccc3c(c2)CCN3C(=O)c2ccc(C)cc2)cc1,,inactive: -1.01%
CCOC(=O)c1[nH]nc(-c2cc(CC)c(O)cc2O)c1-c1cscn1,"inconclusive: 25.1 µM [falling, single point]",
CCCN1CCN(CCCNC(=O)c2cc3c(=O)[nH]c4ccc(C)cc4c3s2)CC1,,inconclusive: -29.8%
COc1nc(Nc2nc3ccccc3c(=O)[nH]2)nc2ccc(C)cc12,,inconclusive: 0.775%
COc1ccc(/C=C/C(=O)O)cc1OC,,inconclusive: 2.99%
O=S(=O)(Nc1cccc(-c2ccc3nncn3n2)c1)c1ccc(Cl)s1,"inconclusive: 11.2 µM [falling, single point]",
Cc1ccc(NC(=O)C(C)Sc2nnc(C)n2C2CC2)cc1S(=O)(=O)N1CCOCC1 (configuration not stated),,inconclusive: 0.172%
Cc1ccc(C)c(OC(C)C(=O)Nc2ccc(S(=O)(=O)Nc3nccs3)cc2)c1 (configuration not stated),,inconclusive: 1.97%
Cc1ccc(-c2nc(SC(C)C(=O)c3c(N)n(C)c(=O)n(C)c3=O)n[nH]2)cc1 (configuration not stated),,inactive: 3.76%
Cc1ccc(C(=O)Nc2ccc3ncccc3c2)cc1,,inconclusive: -14.3%
COC(=O)c1ccc(NC(=O)C2CCN(C(=O)c3cc(OC)c(OC)c(OC)c3)CC2)cc1,,inconclusive: 5.57%
COc1ccc(/C=C/C(=O)c2ccoc2)cc1,,inconclusive: -28.5%
Cc1ccccc1-n1c(SCC(=O)c2cc(C)n(C)c2C)nnc1-c1cccnc1,,inconclusive: -3.51%
Cc1cccc(-n2c(C)c(C)c3c(N)ncnc32)c1,,inactive: -24.8%
Cc1cccc(/C=C/c2nc3ccccc3c(=O)n2Cc2ccccc2)c1,,inconclusive: 25.7%
Cc1ccc(N/C=C/C(=O)c2ccco2)c(O)c1,"inconclusive: 35.5 µM [rising, single point]",
COc1c(O)cc2c(c1O)C1OC(CO)C(O)C(O)C1OC2=O (configuration not stated),,inactive: -0.759%

# A few values from the list:
# CCc1ccc(-n2c(SCC(=O)N3Cc4ccccc4CC3C(=O)O)nnc2-c2ccncc2)cc1 (configuration not stated) | Potency: inconclusive: 22.4 µM [falling, single point]
# COc1ccc(/C=C/C(=O)O)cc1OC | activity change, negative = inhibition: inconclusive: 2.99%
# Cc1ccc(-c2nc(SC(C)C(=O)c3c(N)n(C)c(=O)n(C)c3=O)n[nH]2)cc1 (configuration not stated) | activity change, negative = inhibition: inactive: 3.76%
# Cc1ccc(C(=O)NCc2ccc3c(c2)CCN3C(=O)c2ccc(C)cc2)cc1 | activity change, negative = inhibition: inactive: -1.01%
# Cc1ccccc1-n1c(SCC(=O)c2cc(C)n(C)c2C)nnc1-c1cccnc1 | activity change, negative = inhibition: inconclusive: -3.51%
# COc1ccc(/C=C/C(=O)c2ccoc2)cc1 | activity change, negative = inhibition: inconclusive: -28.5%

# (more compounds)

Structure (SMILES),Potency,"activity change, negative = inhibition"
O=C(Cc1ccc(Cl)cc1)Oc1cccc2cccnc12,"inconclusive: 29.1 µM [cytotoxic, single point]",
CC(=O)c1ccc2c(ccc3ccccc32)c1,,inconclusive: 0.585%
CCC(C)(C)NC(=O)CN(Cc1ccc2c(c1)OCO2)C(=O)CCC(=O)Nc1cc(C)ccn1,,inactive: -1.6%
CCOC(=O)N1CCN(c2ccc(Cl)cc2)CC1,,inconclusive: 9.61%
Cn1c(=O)[nH]c(=O)c2c1nc(Sc1nc3ccccc3s1)n2Cc1ccccc1,,inconclusive: -3.11%
CCCc1nc2ccccc2c(=O)n1NC(=O)c1c(O)c2cccc3c2n(c1=O)CCC3,,inconclusive: -1.24%
CNC(=O)/C(C#N)=C/c1c(N(Cc2ccccc2)Cc2ccccc2)nc2ccccn2c1=O,,inactive: -6.81%
CCN(CC)S(=O)(=O)c1ccc(O)c(NS(=O)(=O)c2ccccc2F)c1,,inconclusive: 6.7%
CC1C(=O)NN=C1C(=O)N/N=C/c1cccs1 (configuration not stated),"inconclusive: 12.6 µM [falling, partial curve]",
CC(=O)c1ccc(NC(=S)NNC(=O)c2ccncc2)cc1,,inconclusive: -0.103%
COc1cc(NC(=O)C2CC(c3c(F)cccc3Cl)=NO2)cc(OC)c1OC (configuration not stated),,inactive: -4.46%
CN(C)C(=O)c1cn(-c2ccccc2)nc1-c1cc2ccccc2o1,,inconclusive: -0.656%
O=C(CNc1ccc(F)cc1)N/N=C/C1CC=CCC1 (configuration not stated),"inconclusive: 11.2 µM [falling, partial curve]",
CCCCN1CCNC[C@H]1Cc1ccc(O)cc1,,inactive: -3.29%
O=C(NC1CCCCC1)C1Cc2ccccc2CN1S(=O)(=O)c1ccc(F)cc1 (configuration not stated),"inconclusive: 18.4 µM [falling, single point]",
O=C(CSc1nnc(-c2ccccc2)o1)NC1CCCCC1,,inconclusive: -5.45%
C/C(=N\NC(=O)c1ccccc1Cl)c1ccccn1,"inconclusive: 35.5 µM [falling, single point]",
CCC(C)(C)C1CCc2nc3ccccc3c(C(=O)OC(C)C(=O)Nc3c(C)n(C)n(-c4ccccc4)c3=O)c2C1 (configuration not stated),,inconclusive: -0.501%
CCOC(=O)COc1ccc(/C=C/[N+](=O)[O-])c(OCC(=O)OCC)c1,"inconclusive: 17.8 µM [falling, single point]",
O=C(CC1=NC2(CCCC2)Cc2ccccc21)N1CCOCC1,"inconclusive: 22.4 µM [falling, single point]",
O=C(COC(=O)c1ccccc1OCC(=O)Nc1ccc(Br)cc1)Nc1ccccc1,,inactive: -0.579%

Structure (SMILES),Potency,"activity change, negative = inhibition"
C[C@@H](NC(=O)c1nc[nH]c1C(=O)NCC(=O)OCc1ccccc1)c1ccccc1,,inactive: 1.84%
C/C(=N\NC(=O)c1ccco1)c1ccc(C(=O)O)s1,"inconclusive: 15.8 µM [falling, single point]",
COc1ccc(CN2CCNC(=O)C2CC(=O)N2CCCCO2)c(OC)c1 (configuration not stated),,inconclusive: 5.42%
COc1ccc2[nH]c(C)c(C(=O)CN(C)CC3OCCO3)c2c1,,inactive: 2.81%
O=C(NNC(=O)c1cc2ccccc2oc1=O)c1ccccc1[N+](=O)[O-],"inconclusive: 17.8 µM [falling, partial curve]",
COc1ccccc1NC(=O)CSc1nnc(C2CCCCC2)n1-c1ccccc1,,inconclusive: 9.57%
CC1CCN(C(=O)COC(=O)c2n[nH]c(=O)c3ccccc23)CC1,,inconclusive: 5.47%
Cc1nc2ccccc2n1C(=O)c1ccccc1[N+](=O)[O-],,inconclusive: -11.8%
CCC(Sc1ccc2nnc(-c3ccc(OC)c(OC)c3)n2n1)C(=O)O (configuration not stated),,inactive: 11.2%
COc1cccc(C(=O)Nc2ccc(NC(=O)C3CC=CCC3C(=O)O)cc2)c1 (configuration not stated),,inconclusive: 4.25%
Cc1ccn2cc(-c3ccc(O)c(O)c3)nc2c1,,inconclusive: -9.08%
Cc1ccc(N2C(=O)C3C(C2=O)C(C(=O)c2ccc(Cl)cc2)N2CCCC32)cc1 (configuration not stated),"inconclusive: 11.6 µM [falling, partial curve]",
COc1ccc(C(=O)Nc2ccc(C3=NNC(=O)CC3C)cc2NC(=O)c2ccc(OC)cc2)cc1 (configuration not stated),"inconclusive: 10 µM [falling, partial curve, poor fit]",
O=C(Nc1nnc(SCC(=O)N2CCCCC2)s1)C1CCCCC1,,inconclusive: 12.2%
CCCCn1c(N)c(N(CCOC)C(=O)C2CCN(C(=O)c3ccc(F)cc3)CC2)c(=O)[nH]c1=O,,inconclusive: -32.9%
COc1ccccc1NC(=O)Cn1cnc2c1c(=O)n(C)c(=O)n2C,,inactive: -5.78%
Cn1ccc(NC(=O)Nc2ccc(Cl)cc2Cl)n1,,inactive: 8.68%
CCOC(=O)c1c(C2COc3ccccc3O2)csc1N (configuration not stated),,inconclusive: 29.9%
O=C(O)CCC(=O)Nc1ccc(Cc2ccc(NC(=O)CCC(=O)O)cc2)cc1,,inconclusive: 8.04%
COc1ccc(NC(=O)CCNS(=O)(=O)c2cccc3nonc23)c(OC)c1,,inactive: 0.476%
C/C(=N\NC(=O)c1nnn(-c2nonc2N)c1-c1ccc2c(c1)OCO2)c1cccs1,,inactive: -0.828%

Structure (SMILES),Potency,"activity change, negative = inhibition"
CCCOc1ccc(/C(O)=C2/C(=O)C(=O)N(CCN(C)C)C2c2ccco2)cc1 (configuration not stated),,inconclusive: -0.814%
Cc1cc(C)cc(NC(=O)CN2CCc3cc4c(cc3C2C)OCCCO4)c1 (configuration not stated),,inactive: 1.46%
Cc1ccc2nc(/C(C#N)=C/c3ccccc3C(=O)O)[nH]c2c1,,inconclusive: -11.3%
Cn1c(CO)cnc1SCc1c(Cl)cccc1Cl,,inactive: -0.828%
Cc1cc(C)c2c(=O)n(CC(=O)NCCCN3CCOCC3)sc2n1,"inconclusive: 23.1 µM [falling, partial curve, poor fit]",
COc1ccc(CCNC(=O)C2CCCN(S(=O)(=O)c3cnc[nH]3)C2)cc1OC (configuration not stated),,inconclusive: -5.69%
Cc1ccc(C2=Nc3ccccc3N(C(=O)c3ccccc3)C(C)C2)cc1 (configuration not stated),,inconclusive: 0.115%
O=C(Nc1nc2c(ccc3ccccc32)s1)c1ccco1,,inconclusive: 11.3%
O=C(NC1CCCCC1)N(CCN1CCOCC1)Cc1cc2cc3c(cc2[nH]c1=O)OCCO3,,inactive: -11.7%
Clc1ccc(-c2nnc(Sc3nc4ccccc4o3)c3ccccc23)cc1,"inconclusive: 11.2 µM [falling, partial curve, poor fit]",
Cc1cccc(C)c1N(CC(O)Cn1c2ccccc2c2ccccc21)S(C)(=O)=O (configuration not stated),,inconclusive: 5.28%
Cc1ccc(N(Cc2cc(=O)[nH]c3ccccc23)C(=O)CCl)c(C)c1,"inconclusive: 35.5 µM [falling, single point]",
CCCCNC(=O)CCn1c(=O)c2cccn2c2ccc(F)cc21,,inactive: 0.938%
O=c1[nH]c(=S)[nH]cc1Oc1ccc(Cl)cc1Cl,,inactive: 2.68%
CC1CCCN(C(=O)c2ccc(OC3CCN(CCc4ccccc4)CC3)cc2)C1 (configuration not stated),"inconclusive: 15.8 µM [falling, partial curve, poor fit]",
Cc1ccn(CCC(=O)O)n1,,inactive: 0.88%
O=C1CN=C(Nc2ccccc2Cl)N1Cc1ccc2c(c1)OCO2,"inconclusive: 23.1 µM [falling, partial curve, poor fit]",
COc1cc(CNC(C)(C)CO)cc(Br)c1OCc1ccccc1,,inconclusive: -6.14%
CCc1nc(N=Nc2c(O)[nH]c3ccccc23)c2c3c(sc2n1)CCC3,,inconclusive: 1.71%
